# Experimental data as given in PMC11575963.
# Results are given in words; binding and its absence hold for the method and conditions named. In cells and extracts the contact can be indirect. Binding calls can cover weak binding; strength is not graded here.
# Target: T1, arginase 1 (human (endogenous in granulocytes of sepsis patients)) (UniProt P05089)
# T1 sequence: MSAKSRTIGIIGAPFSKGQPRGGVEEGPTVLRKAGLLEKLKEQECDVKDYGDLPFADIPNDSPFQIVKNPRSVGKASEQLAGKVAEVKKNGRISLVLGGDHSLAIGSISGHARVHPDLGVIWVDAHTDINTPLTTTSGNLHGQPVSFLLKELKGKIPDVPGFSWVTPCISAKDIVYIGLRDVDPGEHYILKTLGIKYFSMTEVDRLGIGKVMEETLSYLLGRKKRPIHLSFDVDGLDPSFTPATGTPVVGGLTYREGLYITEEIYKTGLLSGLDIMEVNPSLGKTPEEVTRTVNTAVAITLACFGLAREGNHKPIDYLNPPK
# Experiment: co-IP; protein extracts of granulocytes isolated from sepsis patients (cell lysis buffer with protease inhibitors); antibodies specific to MMP8, MMP9, ARG1 and CXCL8 used to pull down the respective proteins; immunoprecipitates analysed by Western blot
substance,measurement,value
C–X–C motif chemokine ligand 8,binding,binds
